The results in this text go back to patent publication CN113651889A.

Sequences of proteins named here, by UniProt entry; tags and fusion partners are left off. Residues count along the entry.
UniProt P29317, residues 24-976: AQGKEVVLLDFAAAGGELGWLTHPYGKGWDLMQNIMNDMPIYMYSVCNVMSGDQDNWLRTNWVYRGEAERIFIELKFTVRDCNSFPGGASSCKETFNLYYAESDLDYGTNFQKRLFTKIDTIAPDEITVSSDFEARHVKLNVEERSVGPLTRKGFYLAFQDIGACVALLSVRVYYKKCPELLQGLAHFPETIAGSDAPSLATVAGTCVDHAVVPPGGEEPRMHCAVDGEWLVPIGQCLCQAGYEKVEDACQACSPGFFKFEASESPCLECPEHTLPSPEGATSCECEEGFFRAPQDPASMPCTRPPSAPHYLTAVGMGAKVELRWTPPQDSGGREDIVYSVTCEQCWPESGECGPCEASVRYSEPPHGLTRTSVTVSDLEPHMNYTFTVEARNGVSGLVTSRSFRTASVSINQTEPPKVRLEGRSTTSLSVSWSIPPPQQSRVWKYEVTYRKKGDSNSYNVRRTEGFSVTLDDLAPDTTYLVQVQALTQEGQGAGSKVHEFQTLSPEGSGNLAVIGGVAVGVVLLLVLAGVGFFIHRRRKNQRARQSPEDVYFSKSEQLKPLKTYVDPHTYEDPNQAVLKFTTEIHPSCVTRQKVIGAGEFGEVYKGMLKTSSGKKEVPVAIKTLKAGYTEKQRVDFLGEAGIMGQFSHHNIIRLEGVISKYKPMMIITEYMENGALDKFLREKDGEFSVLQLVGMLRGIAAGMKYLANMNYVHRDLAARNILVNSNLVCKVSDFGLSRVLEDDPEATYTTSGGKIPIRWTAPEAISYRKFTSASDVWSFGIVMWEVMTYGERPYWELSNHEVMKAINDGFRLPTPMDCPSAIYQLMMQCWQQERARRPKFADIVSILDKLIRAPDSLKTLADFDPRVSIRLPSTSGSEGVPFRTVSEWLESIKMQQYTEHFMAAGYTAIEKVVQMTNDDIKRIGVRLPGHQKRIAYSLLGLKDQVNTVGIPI

Results are given in words; binding and its absence hold for the method and conditions named. Some results given as binding are weak or reduced against the parent protein; the word gives no strength.

For this experiment, the target named is EphA2 receptor on tumour cells (PC-3, HepG2, A549) and on lung adenocarcinoma tissue (human) (UniProt P29317). Description: phage cell ELISA on PC-3, HepG2 and A549 cells. In general terms: ELISA stands for enzyme-linked immunosorbent assay.

B1: scFv77 (scFv)
scFv: QVQLVQSGAEVKKPGASVKVSCRASGYRFTGAYIHWVRQAPGQGLEWMGWINPDNGDTNYAQKFQGRVSLTGDTSISTTYMEMKSLTFGDTAVYYCARSRAADYWGQGTLVTVSSGGGGSGGGGSGGGGSGGGGSQPVLTQSPSVSVSPGHRVTITCSGDNLGDKYVAWYQQKLGHSPVLVIFQDTKRPSGVPERFSGSTSENTATLTISGIQVLDEADYYCQAWDRSTAIFGGGTKVTVL
For the molecule B1, the binding result is “binds”.

B2: scFv14 (scFv)
scFv: QVQLQQWGAGLLKPSETLSLTCAVYGGSFSGYYWSWIRQPPGKGLEWIGEINHSGSTNYNPSLKSRVTISVDTSKNQFSLKLSSVTAADTAVYYCARVLRWMGWFDPWGQGTLVTVSSGSASAPTGGGGSGGGGSGGGGSGGGGSEIVLTQSPLSLPVTPGEPASISCRSSESLLHSNGHNFLDWYLQKPGQSPRLLIYSASNRASGVPDRFSGSGSGTDFTLKISRVEAEDVGVYYCMQGLQGLTFGGGTKVEIK
Take B2: the binding result was “binds”.
